Test results: patent publication US8598125B2, “CDCA1 peptide and pharmaceutical agent comprising the same” (Onco Therapy Science, Inc., priority 2007, dated 2013)
At least one peptide structure holds a part that was inferred or is arguable (an end, a ring closure or a residue). Where no end group is shown, it is not given here.

Legend:
[1] = system: COLO201/CDCA1 (CDCA1+, HLA-A2+); assay: IFN-γ ELISPOT of peptide-induced human CTLs against COLO201/CDCA1; assay type: cell-based; conditions: healthy donor-derived CTLs
[2] = system: A549 cells (CDCA1+, HLA-2−); assay: IFN-γ ELISPOT of peptide-induced human CTLs against A549; assay type: cell-based; conditions: healthy donor-derived CTLs
[3] = system: PANC1 cells (CDCA1+, HLA-A2+); assay: IFN-γ ELISPOT of peptide-induced human CTLs against PANC1; assay type: cell-based; conditions: healthy donor-derived CTLs
peptide-pulsed T2 cells = assay: IFN-γ ELISPOT of peptide-induced human CTLs against peptide-pulsed T2 cells; assay type: cell-based; conditions: for IFN-γ production by CTLs against peptide-pulsed T2 versus unpulsed T2: donor-derived CTLs after three peptide stimulations
[4] = system: CDCA1 peptide-pulsed T2A2 cells; assay: IFN-γ ELISPOT of killer T cells from HLA-A2 transgenic mice immunized with peptide-pulsed BM-DCs; assay type: in vivo; conditions: for CDCA1 specific killer T cell immune response (IFN-γ production): killer T cells from immunized HLA-A2 transgenic mice, peptide-pulsed T2A2 targets, E/T ratio 5:1; for spot count and total spot area, peptide-pulsed versus non-CDCA1 pulsed T2A2 stimulator cells: killer T cells induced with peptide-pulsed BM-DCs of HLA-A2 transgenic mice

Row | Sequence | IFN-γ production / specific immune response against COLO201/CDCA1 versus empty vector-transfected COLO201 [1] | immune response to A549 cells [2] | immune response to PANC1 cells [3] | IFN-γ production in response to peptide-pulsed T2 cells (peptide-pulsed T2 cells; CTLs induced from healthy donor 1) | IFN-γ production by CTLs against peptide-pulsed T2 versus unpulsed T2 (peptide-pulsed T2 cells) | peptide concentration pulsed on T2 cells at which CTLs produced a large amount of IFN-γ (peptide-pulsed T2 cells; healthy donor 1-derived CTLs, E/T ratio of 5) | CDCA1 specific killer T cell immune response (IFN-γ production) ([4]; listed as CDCA1-4) | CDCA1 specific killer T cell immune response (IFN-γ production) ([4]; listed as CDCA1351-359 (No. 4)) | spot count and total spot area, peptide-pulsed versus non-CDCA1 pulsed T2A2 stimulator cells [4] | CDCA1 specific killer T cell immune response (IFN-γ production) ([4]; listed as CDCA1-1) | CDCA1 specific killer T cell immune response (IFN-γ production) ([4]; listed as CDCA165-73 (No. 1))
1 | KLATAQFKI [No. 4, KLATAQFKI] | showed specific immune response | not | showed immune response | more than 300 spots per well | significantly higher | ≥ 0.2 µg/mL | specifically recognized CDCA1 peptide-pulsed T2A2 cells and produced IFN-γ | immune response was observed | significantly greater | – | –
2 | YMMPVNSEV [No. 1, YMMPVNSEV] | produced a larger amount of IFN-γ | – | – | – | significantly greater | – | – | – | significantly greater | specifically recognized CDCA1 peptide-pulsed T2A2 cells and produced IFN-γ | immune response was observed
